Primary screen of a compound library

The values are deposited in ChEMBL (CHEMBL3988442, “University of Dundee, Small-Polar-MMV Screening Library” (2021)).

Mtb growth Cornell: 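Whole-cell assay for inhibitors of Mycobacterium tuberculosis growth, labelled Cornell in the record; the read-out is not stated. The concentration is filed as 10 mM, unlikely as a test dose, so the dose is not known. Higher means stronger inhibition (inferred from two other growth screens of the library). Of about 53,000 compounds tested this way, about 900 (1.7%) reached 50% or more in at least one test.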
Mtb heat-shock: 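Assay on Mycobacterium tuberculosis, filed only as a heat shock assay from Cornell; the read-out is not stated. The concentration is filed as 10 mM, unlikely as a test dose, so the dose is not known. The record gives no direction; compounds that gave an IC50 in retests scored well above the rest, so higher reads as stronger inhibition. Size under these conditions: about 69,000 compounds, about 930 of them at 50% or above in at least one test.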

Each number is a percent effect as filed.
The controls that fix the scale are not given in the record; negative values are as filed.
Compounds were drawn at random from those tested, without regard to their results.
A dash means the value is not listed here; it may have been measured.

| # | SMILES | Mtb growth Cornell | Mtb heat-shock |
|---|---|---|---|
| 1 | `CCCOc1ncccc1CNc1nnc(C)c(C)c1C#N` | - | -66.14 |
| 2 | `CC(NC(=O)NCC1(N2CCCCC2)CCCCC1)c1nncn1C` (centres undefined) | 17.91 | -11.27 |
| 3 | `CC(C)(C)n1c(NC(=O)CNC(=O)NC2CC2)nc2ccccc21` | - | -3.155 |
| 4 | `CN(Cc1ncc(C(C)(C)C)o1)C1CCCN(c2cccnn2)C1` (centres undefined) | -73.83 | 22.5 |
| 5 | `O=C(O)C(F)(F)F.[H][C@@]12CCCO[C@]1([H])[C@H](N(C)C)CN2C(=O)CCc1ccccc1` | 7.457 | 0.1509 |
| 6 | `O=C(c1ccc(COc2ccccc2Cl)o1)N1N=CCC1(O)C(F)(F)F` (centres undefined) | 1.91 | 40.5 |
| 7 | `CCN(CC)Cc1cn2c(n1)CN(C(=O)c1cc(C)on1)CC2.O=C(O)C(F)(F)F` | 2.61 | -2.302 |
| 8 | `CCS(=O)(=O)c1ncc(CN(C)Cc2ccccc2OC)n1CCOC` | 11.98 | -24.13 |
| 9 | `Cc1ccc(CN2CCC3(CCN(Cc4ccncc4)CC3)CC2)cc1` | -35.31 | 4.607 |
| 10 | `CC(NCc1cccc(NC(=O)C2CCCCC2)c1)c1cnn(C)c1` (centres undefined) | 4.815 | 12.42 |
| 11 | `CC(C)c1cccc(CSc2nnc(Cn3cncn3)o2)n1` | 28.89 | 12.42 |
| 12 | `CCOc1ccc(N2CCCN=C2NC(=O)c2cccc(Cl)c2)cc1` | 24.19 | -9.414 |
| 13 | `CC(C)CN1CCC2(C1)CN(S(=O)(=O)c1cn(C)cn1)C2.O=C(O)C(F)(F)F.O=C(O)C(F)(F)F` | -1.008 | 43.29 |
| 14 | `Cc1cccc(C)c1Nc1noc2c1CN(C(=O)c1ccn(C)n1)CC2` | -0.4434 | 5.977 |
| 15 | `Cc1cc(NC(=O)CN2CCCC2c2noc(C3CC3)n2)on1` (centres undefined) | 11.12 | 6.61 |
| 16 | `Cc1noc(CCCNC(=O)C2CSCN2C(=O)C(C)(C)C)n1` (centres undefined) | - | -6.902 |
| 17 | `Cc1nn(C)c(N2CCOCC2)c1CNCC1CCCN1C` (centres undefined) | 9.191 | 12.99 |
| 18 | `CC(O)CCN(C)C(=O)Nc1cccc(F)c1` (centres undefined) | -11.34 | 7.896 |
| 19 | `CN(C(=O)c1ccccc1F)[C@@H]1CC[C@@H](O)[C@@H]1O` | -11.98 | -3.229 |
| 20 | `O=C(Nc1cnn(CCN2CCOCC2)c1)c1cc(F)ccc1F` | - | 14.81 |
| 21 | `O=C(O)C(F)(F)F.O=C(O)C(F)(F)F.[H][C@@]12COC[C@]1(C(=O)N1CCCO1)CN(Cc1cccnc1)C2` | -42.61 | -6.961 |
| 22 | `COCCN1CCC(CNC(=O)c2c[nH]c(=O)c(Cl)c2)CC1` | -36.41 | -3.627 |
| 23 | `Cc1nn(C)c(C)c1NC(=O)CN1CCCC1c1c(C)nn(C)c1C` (centres undefined) | - | 7.378 |
| 24 | `CC1=Nc2c(c(O)nn2C(C)C)C(c2cn(C)nc2C)S1` (centres undefined) | - | -6.565 |
| 25 | `Cn1cc(C2CCCN2C(=O)CCCOc2ccccc2F)cn1` (centres undefined) | - | -11.83 |
| 26 | `Cc1cnn(CCCNC(=O)CCC2CCCCN2C)c1` (centres undefined) | -3.213 | 2.013 |
| 27 | `Cn1cc(C2=CCN(CCCC(=O)Nc3ccc(C#N)cc3)CC2)cn1` | - | -7.609 |
| 28 | `O=C(C1CCOc2ccccc21)N1CCOc2cccc(F)c21` (centres undefined) | - | -19.62 |
| 29 | `CCOc1ccnc(N2CCN(C(=O)c3ccncc3)CC2)n1` | -5.266 | -8.867 |
| 30 | `CCN(CC)C1COc2c(cc(Br)c(C)c2C)C1=O` (centres undefined) | 6.941 | 6.256 |
| 31 | `O=C(NCCNc1ccc(C(F)(F)F)cn1)c1cc(Cl)ccc1F` | - | 18.76 |
| 32 | `COc1ccc(C(C)NC(=O)NCCc2ccc(C)nc2)c(OC)c1` (centres undefined) | -8.996 | 2.628 |
| 33 | `CCOCCN1CCN(CC(=O)N2CCCC2)CC1C` (centres undefined) | -8.255 | -6.606 |
| 34 | `CC(C)(C)OC(=O)N1CC(=O)N(CCc2ccccc2)CC(O)C1` (centres undefined) | -22.29 | 17.11 |
| 35 | `O=C(CCc1nc(Cl)n[nH]1)NC1CCCN(C2Cc3ccccc3C2)C1` (centres undefined) | -8.696 | -25.35 |
| 36 | `c1ccc(CN2CCCC(CNc3ncnc4c3CCNCC4)C2)cc1` (centres undefined) | -15.22 | -15.59 |
| 37 | `Cn1cccc1C(=O)N1CCn2nnc(COc3cccnc3)c2C1.O=C(O)C(F)(F)F` | 11.73 | -23.31 |
| 38 | `CCN(CC)S(=O)(=O)CC(=O)Nc1ccsc1` | - | -127.1 |
| 39 | `c1ccc(-c2nnn3c2COC(CNCC2CCOCC2)C3)cc1` (centres undefined) | - | -55.84 |
| 40 | `Cc1nc(N2CCCC2)ncc1C(=O)Nc1ccc(Br)cc1` | 15.89 | 9.42 |
| 41 | `CCCOc1ccc(CCC(=O)Nc2nonc2C)cc1` | 45.54 | 13.92 |